Test [1] deals with T1, Thioredoxin-interacting protein (mouse (endogenous in primary hippocampal neurons)) (UniProt Q8BG60).
T1 sequence: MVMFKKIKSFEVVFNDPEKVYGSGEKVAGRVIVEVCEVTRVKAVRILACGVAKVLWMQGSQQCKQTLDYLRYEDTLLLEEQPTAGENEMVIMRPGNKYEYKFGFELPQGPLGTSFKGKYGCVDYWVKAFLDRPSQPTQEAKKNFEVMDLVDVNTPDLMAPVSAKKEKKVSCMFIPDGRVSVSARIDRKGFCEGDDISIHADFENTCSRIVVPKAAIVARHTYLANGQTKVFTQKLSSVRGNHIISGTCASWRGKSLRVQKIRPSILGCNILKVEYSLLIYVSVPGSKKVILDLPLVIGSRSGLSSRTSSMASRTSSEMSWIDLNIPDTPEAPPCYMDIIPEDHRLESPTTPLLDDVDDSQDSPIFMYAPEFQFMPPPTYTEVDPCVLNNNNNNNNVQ
Briefly: co-IP; Capture and Release Reversible Immunoprecipitation System Kit (Merck Millipore); precipitation with TXNIP antibody (ab188865) or NLRP3 antibody (ab214185); rabbit/mouse IgG as negative control; sample not named.

Amino acid sequences for entries named in this document (tags omitted).
UniProt Q8R4B8: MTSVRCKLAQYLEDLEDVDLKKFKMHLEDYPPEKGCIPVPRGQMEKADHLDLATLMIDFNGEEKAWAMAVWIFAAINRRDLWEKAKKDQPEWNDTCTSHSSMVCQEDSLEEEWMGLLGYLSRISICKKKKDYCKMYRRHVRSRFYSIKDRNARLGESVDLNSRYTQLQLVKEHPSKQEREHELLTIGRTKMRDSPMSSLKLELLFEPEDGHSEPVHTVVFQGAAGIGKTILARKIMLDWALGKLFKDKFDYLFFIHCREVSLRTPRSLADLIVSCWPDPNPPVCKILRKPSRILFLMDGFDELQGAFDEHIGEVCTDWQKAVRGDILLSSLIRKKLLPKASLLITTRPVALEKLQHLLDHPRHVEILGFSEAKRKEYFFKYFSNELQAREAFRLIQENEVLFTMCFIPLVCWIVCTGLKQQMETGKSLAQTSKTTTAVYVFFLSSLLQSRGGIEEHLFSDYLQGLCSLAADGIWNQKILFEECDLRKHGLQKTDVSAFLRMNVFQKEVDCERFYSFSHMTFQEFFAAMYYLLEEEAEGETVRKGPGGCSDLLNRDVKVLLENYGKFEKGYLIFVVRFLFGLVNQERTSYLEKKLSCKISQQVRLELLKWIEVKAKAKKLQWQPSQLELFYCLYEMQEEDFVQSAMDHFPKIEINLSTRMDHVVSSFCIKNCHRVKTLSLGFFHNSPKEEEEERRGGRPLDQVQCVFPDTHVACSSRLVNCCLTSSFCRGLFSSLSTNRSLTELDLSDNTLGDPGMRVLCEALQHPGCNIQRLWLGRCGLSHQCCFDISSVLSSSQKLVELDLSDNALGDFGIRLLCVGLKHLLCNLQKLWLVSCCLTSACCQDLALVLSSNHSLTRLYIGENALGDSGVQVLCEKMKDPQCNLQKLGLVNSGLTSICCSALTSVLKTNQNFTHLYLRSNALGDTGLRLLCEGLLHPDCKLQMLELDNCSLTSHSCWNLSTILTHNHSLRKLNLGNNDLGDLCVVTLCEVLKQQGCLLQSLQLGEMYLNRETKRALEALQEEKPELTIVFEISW

Test [2] addresses NLR family, domain of pyrin containing 3 (mouse (endogenous in primary hippocampal neurons)) (UniProt Q8R4B8). The description is as above.

Binding data for two molecules are collected here from publication PMC8806838.

Results are given in words; binding and its absence hold for the method and conditions named. Binding seen in cells or lysates may run through a third protein. Some binding calls cover weakened binding; strength is not graded here.

As to “NLR family, domain of pyrin containing 3 (from UniProt Q8R4B8 1-1033)”, in test [1], the binding result was “binds”.

B1: Thioredoxin-interacting protein (protein, UniProt Q8BG60 1-397)
chain: T1 sequence
For the molecule B1, the binding entry in test [2] is on record as “binds”.
